The target in this assay is T1, Phosphatase and Actin Regulator 4 (Phactr4) (mouse (endogenous in murine cells)) (UniProt Q501J7).
T1 sequence: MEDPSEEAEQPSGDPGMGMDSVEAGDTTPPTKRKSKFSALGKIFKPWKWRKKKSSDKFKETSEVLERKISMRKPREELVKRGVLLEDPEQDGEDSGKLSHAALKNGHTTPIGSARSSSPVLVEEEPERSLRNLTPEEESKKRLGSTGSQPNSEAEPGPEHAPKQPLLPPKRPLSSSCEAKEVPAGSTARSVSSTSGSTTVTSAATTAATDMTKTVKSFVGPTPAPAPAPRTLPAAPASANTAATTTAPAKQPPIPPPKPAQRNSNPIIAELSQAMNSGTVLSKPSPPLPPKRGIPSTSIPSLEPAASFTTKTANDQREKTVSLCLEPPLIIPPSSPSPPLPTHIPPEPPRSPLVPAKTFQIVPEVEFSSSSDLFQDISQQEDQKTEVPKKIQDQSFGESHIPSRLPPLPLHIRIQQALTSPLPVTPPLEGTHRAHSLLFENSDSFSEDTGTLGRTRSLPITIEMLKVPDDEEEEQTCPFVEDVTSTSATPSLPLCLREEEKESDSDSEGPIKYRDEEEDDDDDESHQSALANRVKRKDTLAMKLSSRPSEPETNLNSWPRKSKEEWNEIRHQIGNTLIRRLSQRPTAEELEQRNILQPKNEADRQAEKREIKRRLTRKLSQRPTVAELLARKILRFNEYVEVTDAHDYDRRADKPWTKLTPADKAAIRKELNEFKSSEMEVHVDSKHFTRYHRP
Description: co-IP; Phactr4 antibody or control IgG added to precleared cell lysate overnight at 4°C, Protein G magnetic beads; IP Lysis Buffer 50 mM Tris pH 7.4, 1% IPEGAL, 150 mM NaCl, 1 mM EDTA, 10% glycerol, 1.5 mM MgCl2; blots for Arp3, PP1 and Phactr4.

No constants are given. Whether binding was seen depends on the method and setting. Binding seen in cells or lysates may run through a third protein. Binding can be weak; no strength is given.

With “Protein Phosphatase 1 (PP1) (mouse (endogenous in murine cells)) (enzyme)”, the binding result is given as “binds”.

The values above are taken from article doi:10.1101/2025.05.13.653717.
